The results in this text go back to the supplement of paper PMC12819154, “High-throughput peptide-centric local stability assay extends protein–ligand identification to membrane proteins, tissues and bacteria” (Nature Structural & Molecular Biology, 2025).

Sequences of proteins named here, by UniProt entry; tags and fusion partners are left off. A change or cut given only in a name is not applied to a line headed by its entry.
UniProt Q61107: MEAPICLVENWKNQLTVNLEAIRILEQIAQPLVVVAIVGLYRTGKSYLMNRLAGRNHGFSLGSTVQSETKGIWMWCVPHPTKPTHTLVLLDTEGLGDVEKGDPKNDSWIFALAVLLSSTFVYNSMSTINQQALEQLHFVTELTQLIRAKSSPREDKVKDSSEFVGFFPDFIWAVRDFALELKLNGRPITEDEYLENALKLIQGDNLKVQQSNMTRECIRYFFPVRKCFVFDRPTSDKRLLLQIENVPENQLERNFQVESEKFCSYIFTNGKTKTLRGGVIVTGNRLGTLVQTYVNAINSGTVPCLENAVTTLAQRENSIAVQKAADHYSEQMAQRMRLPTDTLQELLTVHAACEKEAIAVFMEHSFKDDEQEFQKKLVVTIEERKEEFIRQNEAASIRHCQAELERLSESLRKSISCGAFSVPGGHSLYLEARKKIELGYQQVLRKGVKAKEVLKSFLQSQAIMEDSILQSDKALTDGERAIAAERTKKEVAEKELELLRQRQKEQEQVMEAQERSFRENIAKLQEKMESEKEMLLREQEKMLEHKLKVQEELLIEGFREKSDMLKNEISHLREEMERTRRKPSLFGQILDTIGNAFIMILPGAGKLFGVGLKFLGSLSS
UniProt Q61908: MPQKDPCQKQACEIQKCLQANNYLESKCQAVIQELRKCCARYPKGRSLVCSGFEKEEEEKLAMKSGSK
UniProt Q62425: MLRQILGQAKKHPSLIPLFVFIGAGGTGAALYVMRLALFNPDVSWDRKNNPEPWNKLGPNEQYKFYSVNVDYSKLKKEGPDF
UniProt Q64310: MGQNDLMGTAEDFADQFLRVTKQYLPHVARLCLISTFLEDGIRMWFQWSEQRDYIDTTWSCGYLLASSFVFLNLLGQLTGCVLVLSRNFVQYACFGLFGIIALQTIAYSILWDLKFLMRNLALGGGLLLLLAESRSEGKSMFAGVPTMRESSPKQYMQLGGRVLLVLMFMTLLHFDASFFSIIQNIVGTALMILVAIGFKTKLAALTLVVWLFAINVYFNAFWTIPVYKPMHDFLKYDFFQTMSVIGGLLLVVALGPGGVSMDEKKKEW
UniProt Q61469: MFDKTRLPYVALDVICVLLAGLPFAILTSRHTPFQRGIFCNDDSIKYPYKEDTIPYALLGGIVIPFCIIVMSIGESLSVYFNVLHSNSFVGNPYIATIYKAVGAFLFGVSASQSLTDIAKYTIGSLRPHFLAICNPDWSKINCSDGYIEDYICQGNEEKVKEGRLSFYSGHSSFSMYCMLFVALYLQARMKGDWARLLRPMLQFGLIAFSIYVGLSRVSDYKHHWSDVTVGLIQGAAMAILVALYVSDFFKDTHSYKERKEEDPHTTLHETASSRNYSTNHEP
UniProt Q60872, whole entry: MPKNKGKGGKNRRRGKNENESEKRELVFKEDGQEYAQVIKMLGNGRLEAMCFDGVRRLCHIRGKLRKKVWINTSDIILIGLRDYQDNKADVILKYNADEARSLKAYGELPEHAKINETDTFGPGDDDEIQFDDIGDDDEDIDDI
UniProt Q64685: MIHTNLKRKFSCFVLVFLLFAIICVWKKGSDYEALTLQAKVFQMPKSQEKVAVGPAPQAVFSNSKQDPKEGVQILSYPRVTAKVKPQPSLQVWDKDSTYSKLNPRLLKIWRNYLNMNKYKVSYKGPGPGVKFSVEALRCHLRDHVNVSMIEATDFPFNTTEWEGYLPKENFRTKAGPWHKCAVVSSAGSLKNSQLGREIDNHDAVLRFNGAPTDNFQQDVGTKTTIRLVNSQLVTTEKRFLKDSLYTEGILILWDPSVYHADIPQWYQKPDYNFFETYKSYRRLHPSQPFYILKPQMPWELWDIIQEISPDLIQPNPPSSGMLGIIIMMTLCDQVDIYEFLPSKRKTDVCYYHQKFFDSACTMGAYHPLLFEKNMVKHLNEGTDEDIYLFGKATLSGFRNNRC
UniProt Q6NV83: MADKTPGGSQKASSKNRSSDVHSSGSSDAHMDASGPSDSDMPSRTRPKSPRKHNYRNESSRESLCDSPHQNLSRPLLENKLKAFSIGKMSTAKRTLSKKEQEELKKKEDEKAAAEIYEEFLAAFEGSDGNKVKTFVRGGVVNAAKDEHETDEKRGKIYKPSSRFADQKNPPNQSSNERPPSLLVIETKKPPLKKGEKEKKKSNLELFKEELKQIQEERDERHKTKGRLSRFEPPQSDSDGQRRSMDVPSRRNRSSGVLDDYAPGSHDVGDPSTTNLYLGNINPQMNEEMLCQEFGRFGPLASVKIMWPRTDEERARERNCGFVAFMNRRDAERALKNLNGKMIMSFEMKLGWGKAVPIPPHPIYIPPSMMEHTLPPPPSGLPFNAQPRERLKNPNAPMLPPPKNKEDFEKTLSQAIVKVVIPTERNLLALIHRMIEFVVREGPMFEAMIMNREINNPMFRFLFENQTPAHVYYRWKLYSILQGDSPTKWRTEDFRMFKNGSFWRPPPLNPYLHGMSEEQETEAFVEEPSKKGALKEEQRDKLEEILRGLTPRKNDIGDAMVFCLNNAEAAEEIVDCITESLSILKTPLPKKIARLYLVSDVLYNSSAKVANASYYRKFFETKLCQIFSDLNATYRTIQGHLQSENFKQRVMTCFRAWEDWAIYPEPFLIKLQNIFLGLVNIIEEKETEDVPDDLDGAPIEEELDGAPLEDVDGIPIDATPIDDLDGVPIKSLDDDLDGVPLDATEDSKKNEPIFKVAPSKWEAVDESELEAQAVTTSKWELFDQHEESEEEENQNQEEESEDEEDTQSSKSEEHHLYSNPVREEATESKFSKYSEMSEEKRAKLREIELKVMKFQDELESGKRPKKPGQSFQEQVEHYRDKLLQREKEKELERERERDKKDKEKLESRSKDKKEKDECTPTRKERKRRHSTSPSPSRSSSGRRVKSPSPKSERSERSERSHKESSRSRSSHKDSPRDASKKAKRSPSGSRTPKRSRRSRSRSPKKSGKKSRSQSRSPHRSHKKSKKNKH
UniProt Q61646: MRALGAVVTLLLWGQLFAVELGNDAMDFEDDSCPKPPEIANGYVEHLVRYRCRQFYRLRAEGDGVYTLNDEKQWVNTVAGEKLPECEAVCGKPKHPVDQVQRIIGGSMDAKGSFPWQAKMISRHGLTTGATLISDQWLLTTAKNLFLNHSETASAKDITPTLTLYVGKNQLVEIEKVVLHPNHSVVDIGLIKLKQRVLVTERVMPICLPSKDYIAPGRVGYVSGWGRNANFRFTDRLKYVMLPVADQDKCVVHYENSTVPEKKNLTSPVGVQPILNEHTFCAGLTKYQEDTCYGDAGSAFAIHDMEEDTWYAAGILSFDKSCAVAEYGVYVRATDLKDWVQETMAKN
UniProt Q5SX19: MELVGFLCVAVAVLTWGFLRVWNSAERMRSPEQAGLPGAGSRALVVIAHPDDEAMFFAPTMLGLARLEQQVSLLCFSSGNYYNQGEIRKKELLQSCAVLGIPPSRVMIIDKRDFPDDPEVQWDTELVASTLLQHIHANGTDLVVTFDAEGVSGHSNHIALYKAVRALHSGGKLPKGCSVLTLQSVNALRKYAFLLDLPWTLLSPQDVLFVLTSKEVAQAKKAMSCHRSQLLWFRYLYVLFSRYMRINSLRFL
UniProt Q61387: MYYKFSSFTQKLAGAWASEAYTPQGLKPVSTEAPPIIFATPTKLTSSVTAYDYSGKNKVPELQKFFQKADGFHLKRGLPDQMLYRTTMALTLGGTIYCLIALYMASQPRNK
UniProt Q60634: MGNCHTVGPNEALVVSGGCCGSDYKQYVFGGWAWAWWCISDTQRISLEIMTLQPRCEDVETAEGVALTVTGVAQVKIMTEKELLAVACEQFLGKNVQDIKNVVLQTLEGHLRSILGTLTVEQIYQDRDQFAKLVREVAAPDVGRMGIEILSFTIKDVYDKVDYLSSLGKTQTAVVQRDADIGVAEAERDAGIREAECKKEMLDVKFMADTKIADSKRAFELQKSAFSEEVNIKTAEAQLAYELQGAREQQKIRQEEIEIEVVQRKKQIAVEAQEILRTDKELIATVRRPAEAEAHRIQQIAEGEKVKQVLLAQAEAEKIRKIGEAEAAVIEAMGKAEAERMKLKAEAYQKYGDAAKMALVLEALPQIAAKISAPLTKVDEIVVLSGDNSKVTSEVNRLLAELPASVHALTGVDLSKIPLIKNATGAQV
UniProt Q61133: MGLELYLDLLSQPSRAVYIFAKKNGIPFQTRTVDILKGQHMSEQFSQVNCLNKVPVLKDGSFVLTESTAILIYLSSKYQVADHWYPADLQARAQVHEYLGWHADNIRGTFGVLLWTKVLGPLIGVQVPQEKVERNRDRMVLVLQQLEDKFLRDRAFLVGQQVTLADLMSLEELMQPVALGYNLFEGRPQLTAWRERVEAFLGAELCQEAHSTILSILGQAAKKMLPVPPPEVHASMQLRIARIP
UniProt Q5SUC9: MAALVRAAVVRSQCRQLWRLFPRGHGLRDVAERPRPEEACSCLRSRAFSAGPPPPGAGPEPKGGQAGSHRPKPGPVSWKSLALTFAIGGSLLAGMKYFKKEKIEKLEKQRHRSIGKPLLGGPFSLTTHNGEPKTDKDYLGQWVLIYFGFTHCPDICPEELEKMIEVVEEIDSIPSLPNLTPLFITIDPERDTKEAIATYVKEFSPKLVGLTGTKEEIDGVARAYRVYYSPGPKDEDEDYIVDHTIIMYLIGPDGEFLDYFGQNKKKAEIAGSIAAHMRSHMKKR
UniProt Q61990, whole entry: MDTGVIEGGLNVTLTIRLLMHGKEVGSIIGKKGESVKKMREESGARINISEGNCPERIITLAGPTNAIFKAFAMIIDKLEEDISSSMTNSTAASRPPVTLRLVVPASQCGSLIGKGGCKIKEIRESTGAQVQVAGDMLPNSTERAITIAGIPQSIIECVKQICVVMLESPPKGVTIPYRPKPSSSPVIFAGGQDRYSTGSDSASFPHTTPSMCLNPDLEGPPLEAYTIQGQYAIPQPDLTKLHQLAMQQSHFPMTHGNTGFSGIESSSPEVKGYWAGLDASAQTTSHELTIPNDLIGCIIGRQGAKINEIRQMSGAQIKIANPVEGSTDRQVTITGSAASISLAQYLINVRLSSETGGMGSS
UniProt Q6A068: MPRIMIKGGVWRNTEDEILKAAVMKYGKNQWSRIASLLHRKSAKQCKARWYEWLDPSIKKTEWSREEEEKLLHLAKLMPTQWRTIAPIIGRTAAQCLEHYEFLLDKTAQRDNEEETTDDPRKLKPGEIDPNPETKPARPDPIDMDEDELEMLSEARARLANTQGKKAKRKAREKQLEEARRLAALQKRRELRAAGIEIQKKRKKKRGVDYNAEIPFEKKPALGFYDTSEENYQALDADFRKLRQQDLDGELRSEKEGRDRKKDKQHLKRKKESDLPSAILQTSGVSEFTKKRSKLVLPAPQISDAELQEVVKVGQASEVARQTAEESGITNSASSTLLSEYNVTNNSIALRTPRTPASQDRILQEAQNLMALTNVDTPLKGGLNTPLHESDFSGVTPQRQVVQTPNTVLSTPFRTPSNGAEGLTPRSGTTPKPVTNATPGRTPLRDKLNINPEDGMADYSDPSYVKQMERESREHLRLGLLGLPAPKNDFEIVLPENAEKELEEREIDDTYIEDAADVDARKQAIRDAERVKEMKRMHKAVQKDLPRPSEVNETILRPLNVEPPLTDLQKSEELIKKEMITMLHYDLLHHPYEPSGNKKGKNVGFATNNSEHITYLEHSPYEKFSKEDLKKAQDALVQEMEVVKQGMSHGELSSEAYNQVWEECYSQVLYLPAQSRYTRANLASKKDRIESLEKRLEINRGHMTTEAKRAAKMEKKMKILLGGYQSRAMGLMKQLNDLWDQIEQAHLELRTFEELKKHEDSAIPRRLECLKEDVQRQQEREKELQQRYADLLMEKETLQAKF
UniProt Q62393: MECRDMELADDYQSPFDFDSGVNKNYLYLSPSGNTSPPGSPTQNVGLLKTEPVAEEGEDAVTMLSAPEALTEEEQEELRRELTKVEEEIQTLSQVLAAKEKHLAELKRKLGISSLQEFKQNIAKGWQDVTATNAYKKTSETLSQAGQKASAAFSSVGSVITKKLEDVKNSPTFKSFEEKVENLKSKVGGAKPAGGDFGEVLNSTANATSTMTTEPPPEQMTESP
UniProt Q5U405: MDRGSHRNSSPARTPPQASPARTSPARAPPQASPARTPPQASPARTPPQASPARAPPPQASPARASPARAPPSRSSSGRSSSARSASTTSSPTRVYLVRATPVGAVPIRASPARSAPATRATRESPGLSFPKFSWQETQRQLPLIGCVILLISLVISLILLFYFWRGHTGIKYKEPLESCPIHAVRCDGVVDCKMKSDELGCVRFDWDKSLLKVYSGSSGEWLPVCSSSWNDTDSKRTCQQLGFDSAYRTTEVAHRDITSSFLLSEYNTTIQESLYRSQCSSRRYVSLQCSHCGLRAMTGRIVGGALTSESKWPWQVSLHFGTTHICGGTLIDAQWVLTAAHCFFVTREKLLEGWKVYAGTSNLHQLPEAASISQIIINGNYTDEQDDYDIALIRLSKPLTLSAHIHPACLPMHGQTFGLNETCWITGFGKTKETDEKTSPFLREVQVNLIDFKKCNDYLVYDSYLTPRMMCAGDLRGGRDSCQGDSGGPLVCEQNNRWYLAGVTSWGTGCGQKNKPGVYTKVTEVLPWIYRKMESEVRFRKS

Some of the results follow. Small differences around the control level are noise.

Compound in the assay: CN[C@@H]1C[C@H]2O[C@@](C)([C@@H]1OC)n1c3ccccc3c3c4c(c5c6ccccc6n2c5c31)C(=O)NC4 [staurosporine]
Kind of assay: log2 fold change of pooled soluble protein (PISA), ligand vs vehicle (log2 ratio); higher = more thermally stabilized. To be noted: ligand concentration: 20 uM; assay format: PISA pool 52.9/55.5/58.6 C.
With UniProt Q61107, the “log2 fold change of pooled soluble protein” value (from here on “log2 fold change”) was -0.153.

With UniProt Q61908, the “log2 fold change” value is -0.142.

Consider UniProt Q6NS57, for which the “log2 fold change” value was -0.0574.

Regarding UniProt Q5SX79, the “log2 fold change” value is -0.069.

For the target UniProt Q62425, the “log2 fold change” value was -0.0295.

Take UniProt Q64374: the “log2 fold change” value was -0.0472.

On to UniProt Q64310, for which the “log2 fold change” value was -0.51.

Consider UniProt Q61469, for which the “log2 fold change” value was -0.293.

For the target UniProt Q60872, the “log2 fold change” value was -0.18.

Consider UniProt Q5SW19, for which the “log2 fold change” value was -0.00849.

With UniProt Q64685, the “log2 fold change” value is -0.00758.

On to UniProt Q64213, for which the “log2 fold change” value is -0.017.

Take UniProt Q5U5V2: the “log2 fold change” value worked out at 0.0941.

Take UniProt Q6NV83: the “log2 fold change” value was -0.0827.

As to UniProt Q61191, the “log2 fold change” value was -0.00792.

UniProt Q60676: the “log2 fold change” value was determined as 0.0195.

UniProt Q62188: the “log2 fold change” value is 0.0557.

With UniProt Q61646, the “log2 fold change” value was -0.00844.

Regarding UniProt Q5SX19, the “log2 fold change” value is 0.283.

UniProt Q61387: the “log2 fold change” value amounted to 0.204.

For UniProt Q60634, the “log2 fold change” value is -0.0722.

Consider UniProt Q61133, for which the “log2 fold change” value is -0.167.

Regarding UniProt Q61749, the “log2 fold change” value was determined as 0.226.

As for UniProt Q61035, the “log2 fold change” value was 0.0118.

UniProt Q6A028: the “log2 fold change” value came out at 0.135.

UniProt Q61166: the “log2 fold change” value was -0.0786.

Take UniProt Q5SUC9: the “log2 fold change” value was -0.01.

As to UniProt Q60930, the “log2 fold change” value is -0.0263.

Consider UniProt Q61644, for which the “log2 fold change” value is -0.301.

On to UniProt Q60953, for which the “log2 fold change” value is 0.0542.

Take UniProt Q61990: the “log2 fold change” value was -0.0867.

For the target UniProt Q6A068, the “log2 fold change” value was -0.219.

On to UniProt Q62393, for which the “log2 fold change” value came out at 0.0784.

In the case of UniProt Q5U405, the “log2 fold change” value was 0.0302.

UniProt Q62384: the “log2 fold change” value is 0.0392.

For the target UniProt Q61543, the “log2 fold change” value is 0.0683.
